Data set [1] relates to CHO-S cells. The data set is described as follows: Secretion of N-glycan site specific deglycosylation mutants into the media (Western blot). It is filed as cell-based, Chinese Hamster. As to conditions: expressed in CHO-S cells, secretion into the media. (Immunoblotting shows a protein as a band on a membrane.)
For data set [2], the system named is CHO-S cells. The experiment in a line: Western blot analysis of PH20 expression in media and cells after transient expression. It is filed as cell-based, Chinese Hamster. The following applies: band at approximately 66 kDa. In short, it runs like this:
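CHO-S cells were transiently transfected with mutant PH20-HZ24 plasmids using GeneJuice and expressed for 48-72 h at 37 °C, 5% CO2. Media and cells were harvested separately, with PI-PLC treatment used to release GPI-anchored protein. Non-reduced samples were blotted with rabbit anti-PH20 (0.5 μg/mL), and a band near 66 kDa was scored as PH20.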

Where a chain is given by its changes, count along the chain named. Names may count otherwise.

B1: N82A: PH20sHis N-glycosylation site mutant N82A, SEQ ID NO:202 (protein)
chain: MGVLKFKHIFFRSFVKSSGVSQIVFTFLLIPCCLTLNFRAPPVIPNVPFLWAWNAPSEFCLGKFDEPLDMSLFSFIGSPRIAATGQGVTIFYVDRLGYYPYIDSITGVTVNGGIPQKISLQDHLDKAKKDITFYMPVDNLGMAVIDWEEWRPTWARNWKPKDVYKNRSIELVQQQNVQLSLTEATEKAKQEFEKAGKDFLVETIKLGKLLRPNHLWGYYLFPDCYNHHYKKPGYNGSCFNVEIKRNDDLSWLWNESTALYPSIYLNTQQSPVAATLYVRNRVREAIRVSKIPDAKSPLPVFAYTRIVFTDQVLKFLSQDELVYTFGETVALGASGIVIWGTLSIMRSMKSCLLLDNYMETILNPYIINVTLAAKMCSQVLCQEQGVCIRKNWNSSDYLHLNPDNFAIQLEKGGKFTVRGKPTLEDLEQFSEKFYCSCYSTLSCKEKADVKDTDAVDVCIADGVCIDAFLKPPMETEEPQIFYNASPSTLSHHHHHH
modifications: His tag; PH20sHis N82A
Regarding B1, the Secretion entry in data set [1] is reported as “YES”; in data set [1] (listed as N82), “no effect on secretion”.

B2: N235A: PH20sHis N-glycosylation site mutant N235A, SEQ ID NO:204 (protein)
chain: B1 chain with A82N, N235A
modifications: His tag; PH20sHis N235A
With B2, the Secretion entry is on record as “YES” in data set [1] and “no effect on secretion” in data set [1] (listed as N235).

B3: N254A: PH20sHis N-glycosylation site mutant N254A, SEQ ID NO:205 (protein)
chain: B1 chain with A82N, N254A
modifications: His tag; PH20sHis N254A
Consider B3, for which the Secretion result in data set [1] is given as “YES”; in data set [1] (listed as N254) it was “no effect on secretion”.

B4: N166A: PH20sHis N-glycosylation site mutant N166A, SEQ ID NO:203 (protein)
chain: B1 chain with A82N, N166A
modifications: His tag; PH20sHis N166A
With B4, the results for the Secretion result in data set [1] and in data set [1] (listed as N166) were “YES” and “no effect on secretion”, respectively.

B5: SPAM1-LKPP: C-terminally truncated human PH20, precursor 472 aa (SEQ ID NO:28), mature 437 aa (SEQ ID NO:80) (protein, listed as Homo sapiens)
chain 1: MGVLKFKHIFFRSFVKSSGVSQIVFTFLLIPCCLTLNFRAPPVIPNVPFLWAWNAPSEFCLGKFDEPLDMSLFSFIGSPRINATGQGVTIFYVDRLGYYPYIDSITGVTVNGGIPQKISLQDHLDKAKKDITFYMPVDNLGMAVIDWEEWRPTWARNWKPKDVYKNRSIELVQQQNVQLSLTEATEKAKQEFEKAGKDFLVETIKLGKLLRPNHLWGYYLFPDCYNHHYKKPGYNGSCFNVEIKRNDDLSWLWNESTALYPSIYLNTQQSPVAATLYVRNRVREAIRVSKIPDAKSPLPVFAYTRIVFTDQVLKFLSQDELVYTFGETVALGASGIVIWGTLSIMRSMKSCLLLDNYMETILNPYIINVTLAAKMCSQVLCQEQGVCIRKNWNSSDYLHLNPDNFAIQLEKGGKFTVRGKPTLEDLEQFSEKFYCSCYSTLSCKEKADVKDTDAVDVCIADGVCIDAFLKPP
chain 2: LNFRAPPVIPNVPFLWAWNAPSEFCLGKFDEPLDMSLFSFIGSPRINATGQGVTIFYVDRLGYYPYIDSITGVTVNGGIPQKISLQDHLDKAKKDITFYMPVDNLGMAVIDWEEWRPTWARNWKPKDVYKNRSIELVQQQNVQLSLTEATEKAKQEFEKAGKDFLVETIKLGKLLRPNHLWGYYLFPDCYNHHYKKPGYNGSCFNVEIKRNDDLSWLWNESTALYPSIYLNTQQSPVAATLYVRNRVREAIRVSKIPDAKSPLPVFAYTRIVFTDQVLKFLSQDELVYTFGETVALGASGIVIWGTLSIMRSMKSCLLLDNYMETILNPYIINVTLAAKMCSQVLCQEQGVCIRKNWNSSDYLHLNPDNFAIQLEKGGKFTVRGKPTLEDLEQFSEKFYCSCYSTLSCKEKADVKDTDAVDVCIADGVCIDAFLKPP
modifications: HuPH20 precursor 1-472; Mature HuPH20 36-472
In the case of B5, the “Protein Expression” value in data set [2] is “YES”.

B6: SPAM1-KPPM: C-terminally truncated human PH20, precursor 473 aa (SEQ ID NO:27), mature 438 aa (SEQ ID NO:79) (protein, listed as Homo sapiens)
chain 1: MGVLKFKHIFFRSFVKSSGVSQIVFTFLLIPCCLTLNFRAPPVIPNVPFLWAWNAPSEFCLGKFDEPLDMSLFSFIGSPRINATGQGVTIFYVDRLGYYPYIDSITGVTVNGGIPQKISLQDHLDKAKKDITFYMPVDNLGMAVIDWEEWRPTWARNWKPKDVYKNRSIELVQQQNVQLSLTEATEKAKQEFEKAGKDFLVETIKLGKLLRPNHLWGYYLFPDCYNHHYKKPGYNGSCFNVEIKRNDDLSWLWNESTALYPSIYLNTQQSPVAATLYVRNRVREAIRVSKIPDAKSPLPVFAYTRIVFTDQVLKFLSQDELVYTFGETVALGASGIVIWGTLSIMRSMKSCLLLDNYMETILNPYIINVTLAAKMCSQVLCQEQGVCIRKNWNSSDYLHLNPDNFAIQLEKGGKFTVRGKPTLEDLEQFSEKFYCSCYSTLSCKEKADVKDTDAVDVCIADGVCIDAFLKPPM
chain 2: LNFRAPPVIPNVPFLWAWNAPSEFCLGKFDEPLDMSLFSFIGSPRINATGQGVTIFYVDRLGYYPYIDSITGVTVNGGIPQKISLQDHLDKAKKDITFYMPVDNLGMAVIDWEEWRPTWARNWKPKDVYKNRSIELVQQQNVQLSLTEATEKAKQEFEKAGKDFLVETIKLGKLLRPNHLWGYYLFPDCYNHHYKKPGYNGSCFNVEIKRNDDLSWLWNESTALYPSIYLNTQQSPVAATLYVRNRVREAIRVSKIPDAKSPLPVFAYTRIVFTDQVLKFLSQDELVYTFGETVALGASGIVIWGTLSIMRSMKSCLLLDNYMETILNPYIINVTLAAKMCSQVLCQEQGVCIRKNWNSSDYLHLNPDNFAIQLEKGGKFTVRGKPTLEDLEQFSEKFYCSCYSTLSCKEKADVKDTDAVDVCIADGVCIDAFLKPPM
modifications: HuPH20 precursor 1-473; Mature HuPH20 36-473
Turning to B6, the “Protein Expression” value in data set [2] is given as “YES”.

B7: SPAM1-FLKP: C-terminally truncated human PH20, precursor 471 aa (SEQ ID NO:29), mature 436 aa (SEQ ID NO:81) (protein, listed as Homo sapiens)
chain 1: MGVLKFKHIFFRSFVKSSGVSQIVFTFLLIPCCLTLNFRAPPVIPNVPFLWAWNAPSEFCLGKFDEPLDMSLFSFIGSPRINATGQGVTIFYVDRLGYYPYIDSITGVTVNGGIPQKISLQDHLDKAKKDITFYMPVDNLGMAVIDWEEWRPTWARNWKPKDVYKNRSIELVQQQNVQLSLTEATEKAKQEFEKAGKDFLVETIKLGKLLRPNHLWGYYLFPDCYNHHYKKPGYNGSCFNVEIKRNDDLSWLWNESTALYPSIYLNTQQSPVAATLYVRNRVREAIRVSKIPDAKSPLPVFAYTRIVFTDQVLKFLSQDELVYTFGETVALGASGIVIWGTLSIMRSMKSCLLLDNYMETILNPYIINVTLAAKMCSQVLCQEQGVCIRKNWNSSDYLHLNPDNFAIQLEKGGKFTVRGKPTLEDLEQFSEKFYCSCYSTLSCKEKADVKDTDAVDVCIADGVCIDAFLKP
chain 2: LNFRAPPVIPNVPFLWAWNAPSEFCLGKFDEPLDMSLFSFIGSPRINATGQGVTIFYVDRLGYYPYIDSITGVTVNGGIPQKISLQDHLDKAKKDITFYMPVDNLGMAVIDWEEWRPTWARNWKPKDVYKNRSIELVQQQNVQLSLTEATEKAKQEFEKAGKDFLVETIKLGKLLRPNHLWGYYLFPDCYNHHYKKPGYNGSCFNVEIKRNDDLSWLWNESTALYPSIYLNTQQSPVAATLYVRNRVREAIRVSKIPDAKSPLPVFAYTRIVFTDQVLKFLSQDELVYTFGETVALGASGIVIWGTLSIMRSMKSCLLLDNYMETILNPYIINVTLAAKMCSQVLCQEQGVCIRKNWNSSDYLHLNPDNFAIQLEKGGKFTVRGKPTLEDLEQFSEKFYCSCYSTLSCKEKADVKDTDAVDVCIADGVCIDAFLKP
modifications: HuPH20 precursor 1-471; Mature HuPH20 36-471
Regarding B7, the “Protein Expression” value in data set [2] is on record as “YES”.

The values above are taken from patent publication US9284543B2, “Neutral active soluble truncated PH20 polypeptides and uses thereof” (Halozyme, Inc., priority 2008, dated 2016).
